Measured values taken from the supplement of paper PMC10331698.
± gives the standard deviation of the averaged measurements. Most entries show no effect beyond the scatter of the controls.

Key:
Assay in all cases: level (log10 ratio to DMSO vehicle control); higher = higher biomarker level / cell amount than vehicle control
[1] = compound: O=C(O)C(F)(F)C(F)(F)C(F)(F)C(F)(F)C(F)(F)C(F)(F)C(F)(F)C(F)F [9-H-Perfluorononanoic acid]; details: 2200 nM; in DMSO
Protocol: (§1)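 BioMAP Diversity Plus panel of 12 human primary cell co-culture systems (3C, 4H, LPS, SAg, BT, BF4T, BE3C, CASM3C, HDF3CGF, KF3CT, MyoF, Mphg). Compounds were added 1 h before stimulation and left for 24 h (MyoF 48 h; BT 72 h for soluble read-outs or 6 d for IgG). Biomarkers were read by ELISA, cytotoxicity by SRB, PBMC viability and proliferation by Alamar Blue. Each well value was divided by the mean of 8 DMSO control wells on the same plate and log10 transformed; duplicate blinded samples were tested at 4 concentrations.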

[2] = compound: OCC(F)(F)C(F)(F)C(F)(F)C(F)(F)C(F)(F)C(F)(F)C(F)(F)C(F)(F)C(F)(F)C(F)(F)C(F)(F)F [11:1 Fluorotelomer alcohol]; details: in DMSO
Protocol: as §1

[3] = compound: O=P(O)(O)CCC(F)(F)C(F)(F)C(F)(F)C(F)(F)C(F)(F)C(F)(F)C(F)(F)C(F)(F)F [((Perfluorooctyl)ethyl)phosphonic acid]; details: 2200 nM; in DMSO
Protocol: as §1

Perfluorobutanoic acid = compound: O=C(O)C(F)(F)C(F)(F)C(F)(F)F [Perfluorobutanoic acid]; details: 2200 nM; in DMSO
Protocol: as §1

[4] = compound: C=CC(=O)OCC(F)(F)C(F)(F)C(F)(F)C(F)(F)COC(=O)C=C [1H,1H,6H,6H-Perfluorohexane-1,6-diol diacrylate]; details: 2200 nM; in DMSO
Protocol: as §1

Perfluoroundecanoic acid = compound: O=C(O)C(F)(F)C(F)(F)C(F)(F)C(F)(F)C(F)(F)C(F)(F)C(F)(F)C(F)(F)C(F)(F)C(F)(F)F [Perfluoroundecanoic acid]; details: in DMSO
Protocol: as §1

[5] = compound: C=C(C)C(=O)OCC(F)(F)C(F)(F)C(F)(F)F [2,2,3,3,4,4,4-Heptafluorobutyl methacrylate]; details: 2200 nM; in DMSO
Protocol: as §1

[6] = compound: OCCC(F)(F)C(F)(F)C(F)(F)C(F)(F)C(F)(F)C(F)(F)C(F)(F)C(F)(F)F [8:2 Fluorotelomer alcohol]; details: 2200 nM; in DMSO
Protocol: as §1

[7] = compound: FC(F)C(F)(F)COCC1CO1 [((2,2,3,3-Tetrafluoropropoxy)methyl)oxirane]; details: 2200 nM; in DMSO
Protocol: as §1

[8] = compound: FC(F)(F)C(F)(F)C(F)(F)C(F)(F)C(F)(F)C(F)(F)C(F)(F)I [1-Iodopentadecafluoroheptane]; details: in DMSO
Protocol: as §1

[9] = compound: O=C(O)C(F)(F)OC(F)(F)C(F)(F)OC(F)(F)C(=O)O [Perfluoro-3,6-dioxaoctane-1,8-dioic acid]; details: 2200 nM; in DMSO
Protocol: as §1

[10] = compound: O=C(O)C(F)(F)C(F)(F)OC(F)(F)F [Perfluoro-3-methoxypropanoic acid]; details: 2200 nM; in DMSO
Protocol: as §1

[11] = compound: FC(F)(F)C(F)(F)C(F)(F)C(F)(F)C(F)(F)C(F)(F)C(F)(F)CCI [1-Iodo-1H,1H,2H,2H-perfluorononane]; details: in DMSO
Protocol: as §1

[12] = compound: O=C(O)C(F)(F)OC(F)(F)C(F)(F)OC(F)(F)C(F)(F)C(F)(F)C(F)(F)F [Perfluoro-3,6-dioxadecanoic acid]; details: 2200 nM; in DMSO
Protocol: as §1

[13] = compound: O=S(=O)(Cl)C(F)(F)C(F)(F)C(F)(F)C(F)(F)C(F)(F)C(F)(F)C(F)(F)C(F)(F)F [Perfluoro-1-octanesulfonyl chloride]; details: 2200 nM; in DMSO
Protocol: as §1

[14] = compound: O=C(O)C=CC(F)(C(F)(F)F)C(F)(F)F [3-(Perfluoroisopropyl)-2-propenoic acid]; details: in DMSO
Protocol: as §1

Perfluorooctanamide = compound: NC(=O)C(F)(F)C(F)(F)C(F)(F)C(F)(F)C(F)(F)C(F)(F)C(F)(F)F [Perfluorooctanamide]; details: 2200 nM; in DMSO
Protocol: as §1

Perfluoropropanoic acid = compound: O=C(O)C(F)(F)C(F)(F)F [Perfluoropropanoic acid]; details: 2200 nM; in DMSO
Protocol: as §1

Test System | level (log10) [1] | level (log10) ([2]; 370 nM) | level (log10) ([2]; 1100 nM) | level (log10) ([2]; 3300 nM) | level (log10) ([2]; 10000 nM) | level (log10) [3] | level (log10) (Perfluorobutanoic acid) | level (log10) [4] | level (log10) (Perfluoroundecanoic acid; 740 nM) | level (log10) (Perfluoroundecanoic acid; 2200 nM) | level (log10) [5] | level (log10) [6] | level (log10) [7] | level (log10) ([8]; 740 nM) | level (log10) ([8]; 2200 nM) | level (log10) ([8]; 6700 nM) | level (log10) ([8]; 20000 nM) | level (log10) [9] | level (log10) [10] | level (log10) ([11]; 740 nM) | level (log10) ([11]; 2200 nM) | level (log10) ([11]; 6700 nM) | level (log10) ([11]; 20000 nM) | level (log10) [12] | level (log10) [13] | level (log10) ([14]; 2200 nM) | level (log10) ([14]; 6700 nM) | level (log10) ([14]; 20000 nM) | level (log10) ([14]; 60000 nM) | level (log10) (Perfluorooctanamide) | level (log10) (Perfluoropropanoic acid)
SAg:CCL2/MCP-1 | -0.006 ± 0.03 | 0.019 ± 0.021 | 0.0095 ± 0.0078 | -0.013 ± 0.044 | 0.0225 ± 0.039 | -0.0025 ± 0.021 | 0.007 ± 0.0071 | -0.0015 ± 0.088 | 0.0015 ± 0.037 | -0.0075 ± 0.0064 | -0.0045 ± 0.049 | 0.018 ± 0.03 | -0.0135 ± 0.044 | -0.0095 ± 0.042 | -0.015 ± 0.024 | 0.02 ± 0.05 | 0.0105 ± 0.033 | -0.0035 ± 0.026 | -0.007 ± 0.021 | 0.003 ± 0.02 | -0.02 ± 0.017 | -0.0145 ± 0.0078 | -0.0025 ± 0.049 | -0.024 ± 0.025 | 0.0015 ± 0.0092 | -0.0135 ± 0.026 | -0.003 ± 0.0042 | -0.0005 ± 0.016 | -0.0055 ± 0.0064 | 0 ± 0.014 | -0.005 ± 0.011
SAg:CD38 | 0.0135 ± 0.023 | 0.0065 ± 0.15 | -0.0115 ± 0.084 | -0.014 ± 0.073 | 0.0035 ± 0.042 | -0.004 ± 0.0071 | 0.007 ± 0.0028 | -0.005 ± 0.013 | 0.0005 ± 0.005 | -0.0145 ± 0.005 | 0.01 ± 0.081 | -0.003 ± 0.0071 | -0.0025 ± 0.0092 | -0.0035 ± 0.005 | -0.016 ± 0.028 | -0.0085 ± 0.029 | -0.005 ± 0.024 | 0.006 ± 0.042 | -0.0065 ± 0.042 | 0.0165 ± 0.015 | 0.0105 ± 0.0092 | 0.007 ± 0.03 | -0.007 ± 0.042 | 0 ± 0.0099 | -0.0065 ± 0.0021 | -0.0015 ± 0.019 | -0.0125 ± 0.026 | 0.001 ± 0.0071 | -0.019 ± 0.0085 | 0.012 ± 0.0057 | 0.0725 ± 0.0078
SAg:CD40 | -0.0425 ± 0.015 | -0.012 ± 0.067 | -0.038 ± 0.024 | -0.068 | -0.0685 ± 0.042 | -0.0415 ± 0.036 | -0.001 ± 0.027 | -0.04 ± 0.024 | 0.009 ± 0.0028 | -0.0075 ± 0.005 | 0.0135 ± 0.036 | 0 ± 0.0042 | -0.0055 ± 0.0092 | -0.028 ± 0.045 | -0.009 ± 0.0028 | -0.0065 ± 0.013 | -0.007 ± 0.0085 | 0.024 ± 0.025 | 0.016 ± 0.025 | -0.0365 ± 0.066 | -0.024 ± 0.011 | -0.006 ± 0.021 | -0.0065 ± 0.0092 | 0.011 ± 0.0014 | -0.0215 ± 0.011 | -0.004 ± 0.013 | -0.006 ± 0.058 | -0.005 ± 0.04 | -0.038 ± 0.014 | -0.009 | -0.017 ± 0.018
SAg:CD62E/E-Selectin | -0.009 ± 0.013 | 0.054 ± 0.041 | 0.045 ± 0.0057 | 0.0325 ± 0.018 | 0.0355 ± 0.035 | 0.008 ± 0.035 | 0.0005 ± 0.022 | -0.028 ± 0.023 | -0.0235 ± 0.015 | 0.0065 ± 0.039 | 0.032 ± 0.0071 | 0.0085 ± 0.023 | 0.0185 ± 0.018 | -0.0255 ± 0.023 | -0.0245 ± 0.046 | -0.0415 ± 0.056 | -0.008 ± 0.044 | 0.015 ± 0.016 | -0.0005 ± 0.0035 | -0.007 ± 0.0099 | -0.0075 ± 0.018 | 0 ± 0.014 | -0.0225 ± 0.053 | 0.0185 ± 0.029 | -0.004 ± 0.0057 | 0.0035 ± 0.025 | 0 ± 0.011 | 0.0045 ± 0.013 | -0.006 ± 0.0042 | -0.0145 ± 0.013 | 0.0035 ± 0.0064
SAg:CD69 | 0.005 ± 0.018 | -0.0225 ± 0.021 | -0.0355 ± 0.021 | -0.0425 ± 0.029 | -0.038 ± 0.023 | -0.007 ± 0.0028 | 0.006 ± 0.021 | -0.0035 ± 0.012 | -0.0245 ± 0.0021 | -0.0255 ± 0.0078 | 0.0115 ± 0.0092 | -0.0145 ± 0.029 | -0.0015 ± 0.011 | -0.017 ± 0.028 | -0.0245 ± 0.0078 | -0.028 ± 0.0071 | -0.039 ± 0.0014 | -0.003 ± 0.021 | 0.001 ± 0.028 | 0.0095 ± 0.005 | -0.012 ± 0.013 | -0.011 ± 0.017 | -0.0015 ± 0.018 | -0.003 ± 0.0028 | -0.0115 ± 0.0021 | -0.005 ± 0.0028 | -0.0105 ± 0.0035 | 0.013 ± 0.0085 | 0.002 ± 0.0071 | -0.012 ± 0.025 | -0.0285 ± 0.0021
SAg:CXCL8/IL-8 | -0.0015 ± 0.054 | 0.0405 ± 0.12 | 0.0365 ± 0.042 | -0.0005 ± 0.0035 | -0.121 ± 0.28 | 0.0375 ± 0.042 | 0.0095 ± 0.0064 | 0.0295 ± 0.1 | 0.051 ± 0.09 | 0.0335 ± 0.019 | -0.0285 ± 0.14 | 0.016 ± 0.088 | 0.011 ± 0.057 | 0.0615 ± 0.11 | 0.023 ± 0.028 | -0.034 ± 0.035 | 0.0055 ± 0.073 | 0.014 ± 0.054 | 0.0075 ± 0.056 | 0.013 ± 0.021 | -0.01 ± 0.011 | -0.0055 ± 0.019 | 0.004 ± 0.045 | 0.0115 ± 0.057 | 0.0095 ± 0.044 | -0.0125 ± 0.0078 | -0.0185 ± 0.005 | -0.0015 ± 0.033 | 0.009 ± 0.028 | -0.013 ± 0.011 | 0.0255 ± 0.0035
SAg:CXCL9/MIG | -0.009 ± 0.016 | 0.007 ± 0.0099 | -0.004 ± 0.03 | -0.0175 ± 0.035 | 0.012 ± 0.03 | 0.0085 ± 0.012 | -0.0165 ± 0.023 | 0.0135 ± 0.03 | 0.0015 ± 0.012 | -0.0095 ± 0.0021 | 0.0125 ± 0.016 | 0.008 ± 0.0099 | 0.0025 ± 0.0035 | -0.016 ± 0.0085 | -0.0035 ± 0.0021 | 0.006 ± 0.0071 | 0.02 ± 0.0042 | 0.0065 ± 0.00071 | 0.0045 ± 0.0035 | 0.0175 ± 0.011 | 0.003 ± 0.018 | -0.009 ± 0.0071 | 0.006 ± 0.0057 | -0.002 ± 0.025 | -0.0035 ± 0.0021 | 0.0055 ± 0.023 | -0.0105 ± 0.025 | 0.013 | -0.006 ± 0.0085 | -0.016 ± 0.017 | 0.007 ± 0.013
